Experimental data from patent US20050227272A1.
No constants are given. Whether binding was seen depends on the method and setting. For some of these results: In cells and extracts the contact can be indirect. Some results given as binding are weak or reduced against the parent protein; the word gives no strength. For some of these results: Where a sequence is shown, tags or fusion partners need not be part of it. Each block holds one binder with its values, some of them ahead of it.

Amino acid sequences for entries named in this document (tags omitted).
UniProt P25963: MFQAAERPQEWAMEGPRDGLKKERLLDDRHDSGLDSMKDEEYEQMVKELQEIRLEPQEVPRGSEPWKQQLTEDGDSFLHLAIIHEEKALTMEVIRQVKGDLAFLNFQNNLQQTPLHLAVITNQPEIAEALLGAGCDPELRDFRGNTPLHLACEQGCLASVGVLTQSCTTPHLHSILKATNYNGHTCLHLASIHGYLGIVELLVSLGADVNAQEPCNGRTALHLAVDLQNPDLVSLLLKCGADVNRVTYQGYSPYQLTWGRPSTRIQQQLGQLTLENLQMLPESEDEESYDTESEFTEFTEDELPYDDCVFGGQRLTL

What was measured:
[1] = molecular target: full-length IκBα cloned into the pGADT7 vector (yeast two-hybrid target) (UniProt P25963); assay: yeast two-hybrid, β-galactosidase assay, empty pGADT7 as control
[2] = molecular target: clone from the pretransformed human spleen Matchmaker cDNA library that originated from the IκBα gene (human) (UniProt P25963); assay: yeast two-hybrid screen of a human spleen cDNA library, high stringency
[3] = molecular target: IκBα (endogenous, HEK293 cells) (UniProt P25963); assay: anti-His pull-down of His-SUMO4 complexes, 2D PAGE, MALDI-TOF/TOF
[4] = molecular target: IκBα (endogenous, HEK293 cells) (UniProt P25963); assay: co-immunoprecipitation from HEK293 cells with anti-His beads, Western blot with IκBα and His antibodies

- binding [1]: binds
- binding [2]: binds
B1: SUMO4 coding sequence cloned into the pGBKT7 vector (yeast two-hybrid bait) (protein, not shown: large carriers)
chain: MANEKPTEEVKTENNNHINLKVAGQDGSVVQFKIKRQTPLSKLMKAYCEPRGLSMKQIRFRFGGQPISGTDKPAQLEMEDEDTIDVFQQPTGGVY

- binding [3]: binds
- binding [4]: binds
B2: His-tagged SUMO4 expressed in HEK293 cells from pcDNA3.1 (protein, not shown: small tags and cut ends)
chain: B1 chain
